Consider one molecule from PMC4762385.

Results are given in words; binding and its absence hold for the method and conditions named. In cells and extracts the contact can be indirect. Some binding calls cover weakened binding; strength is not graded here. Tags and fused reporters may be left off the sequences shown.

In this test the target is T1, OsRPA2c-GST (rice (Oryza sativa L.)) (UniProt Q5Z8L1).
T1 sequence: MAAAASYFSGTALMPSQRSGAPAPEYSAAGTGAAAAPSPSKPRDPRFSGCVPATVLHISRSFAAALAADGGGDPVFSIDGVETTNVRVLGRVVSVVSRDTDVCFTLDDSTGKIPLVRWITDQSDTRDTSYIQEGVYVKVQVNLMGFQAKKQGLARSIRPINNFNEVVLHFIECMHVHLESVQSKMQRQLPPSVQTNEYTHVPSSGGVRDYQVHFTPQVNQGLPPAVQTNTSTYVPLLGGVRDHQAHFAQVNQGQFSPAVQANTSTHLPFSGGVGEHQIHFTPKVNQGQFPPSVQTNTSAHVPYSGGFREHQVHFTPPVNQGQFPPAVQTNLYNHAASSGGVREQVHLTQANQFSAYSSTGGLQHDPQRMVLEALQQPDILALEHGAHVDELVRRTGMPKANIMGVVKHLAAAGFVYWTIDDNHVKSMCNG
As to the kind of experiment: pull-down; OsRPA2C–GST-coupled beads used to capture MBP fusions (methods); result in Supplementary Fig. S10, whose method the text does not name.

B1: MBP–OsRPA1c (protein, UniProt Q65XV7 1-951)
chain: MEPQLTPGAVQAIAEHPDGTGTIQPVLQVVDVRPVTTKNAPPTPKPAERFRMMLSDGVNTQQSMLATALNPLVKDATLRPGTVVQLTDFMCNTIQGKRIIIVVKLDVLQNDCIVIGNPKHYEPKSLTKEQDPNLQASVAQTNNGTYSGGASMLGPSVAPRAEQAASNSSYGGPYNSAQGMLGSSIGRTVEPGPANVSAVGSYGAISAQNTTNANMMQPTSQLNIMNANTMQPTSQLNTMNANTMQPTSQLSSLNPNQNQRFAAPASGGVFGPPGNAYGQPSRPSYQQPPPVYMNRGPASRNDSATRIIPITALNPYQPKWTIKARVTAKSDIRHWSNARSSGTVFSFDLLDAQGGEIRAQCWKESADKFFGQIEVGRVYLISRGSLKPAQKKYNTLNHDYEITLDIGLSTVEVCSDDDNSIPRLQYNFRQISELENMANETIVDLLGVVTSVSPSATIMRKIGTETRKRSIQLKDLSGRSIEVTLWGNFCDAEGQQLQLQCDSGSNPIIAFKGARVGDFNGKSVSTIGSTQLIINPDFPEVERLRQWYMTEGKTAPCISLSREMLNMGRTDARKTIAQIKDENLGRLEKPDWITVKAAISHVTTESFCYPACPKLLPVGRQCNKKAINNGDGMWHCDRCDESFQNPEYRYMLRFQIQDHTGSTYASAFDEAGEQIFGRKAGELFSIRNVDQDDAQFAEIIEGVRWHLYLFKLKVKEETYNDEQSLKCTAVKVEKLDPSKESNVLLGAIDNLLLDPKGQSDLAPNAGFTDPVGGHGAPTSSNAYAMNTGGVNQFGQQASISAGMSTPLAATRNLQTCSICGANGHSAQICHVGADMDMQETSAGGSSMGNYNSIAGNGSSECYKCKQPGHYARDCPGQSTGGLECFKCKQPGHFSRDCPVQSTGGSECFKCKQPGHFARDCPGQSTGAQHQTYGNNVAASRGYNRQSFVGGY
Regarding B1, the binding result was “binds”.
